# Laboratory results published in the supplement of paper PMC10735217.
# Structures can show the parent of a compound that is named as a salt. This is one part of the list. This data set is noisy: repeats of one test often differ as much as different tests do.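 In a drug-repurposing library screen, luminescence reads luciferase driven by eight TEAD-binding elements, stably integrated into human kidney-derived cells. Compounds scoring over five robust Z scores above the plate mean are called hits.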
# Tested on: HEK293A TEAD-LUC reporter
# Experiment: TEAD-luciferase reporter activity (YAP activation), robust Z score vs plate; higher = stronger YAP/TEAD activation
# Settings: 24 h
Structure (SMILES),TEAD-luciferase reporter activity (compound concentration: 200 nM),TEAD-luciferase reporter activity (compound concentration: 2 uM),TEAD-luciferase reporter activity (compound concentration: 10 uM)
CC(C)=CCOc1cc(NC(=S)c2ccoc2C)ccc1Cl,inactive: 2.13,inactive: -0.0565,inactive: -0.0158
COC(=O)c1cnc2n1CCc1ccccc1C2=C1CCN(CCc2ccc(OCc3ccc4ccccc4n3)cc2)CC1 [[11C]Laniquidar],inactive: 1.11,inactive: 1.73,inactive: 1.25
COc1ccc(CCN(C)CCCC(C#N)(c2ccc(OC)c(OC)c2)C(C)C)cc1OC (racemic) [(Ã ±)-Verapamil hydrochloride],inactive: -1.23,–,inactive: -0.306
COc1cc(/C=C/C(=O)CCCCc2ccccc2)cc(OC)c1O,inactive: -0.409,inactive: -0.132,inactive: -0.541
C#CCN(C)CC1=Cc2ccccc2Oc2ccccc21,inactive: -0.392,inactive: -0.231,inactive: -0.395
Cc1cc(C)nc(N2CC3CN(C(=O)c4c(F)cccc4-n4nccn4)CC3C2)n1 (centres undefined),inactive: -0.74,inactive: -1.41,inactive: 3.2
CCc1nn(CCCN2CCN(c3cccc(Cl)c3)CC2)c(=O)n1CCOc1ccccc1 [Nefazodone],inactive: -1.94,–,inactive: -0.678
CCc1nn(CCCN2CCN(c3cccc(Cl)c3)CC2)c(=O)n1CCOc1ccccc1 [nefazodone hydrochloride],–,inactive: -1.45,–
N=C1CCCN1Cc1[nH]c(=O)[nH]c(=O)c1Cl [Tipiracil hydrochloride],inactive: -0.338,inactive: 2.11,inactive: -1.25
OC1CCCc2nc3ccccc3c(NCc3ccccc3)c21 (centres undefined) [Suronacrine maleate],inactive: -1.73,inactive: -0.759,inactive: -0.518
CC(C(=O)O)c1ccc2c(c1)Cc1cccnc1O2 (centres undefined) [pranoprofen],inactive: 0.25,inactive: 0.853,active: 7.08
CCOC(=O)C1CCN(c2nc(N(C)S(=O)(=O)c3ccccc3)ccc2[N+](=O)[O-])CC1,inactive: 0.692,inactive: 0.403,inactive: 1.37
O=C(O)c1cc2ccccc2s1,inactive: -0.0687,inactive: -2.74,inactive: -0.869
NC(=O)c1ncn2c(=O)n(CCCl)nnc12 [Mitozolomide],inactive: -0.78,inactive: -1.57,inactive: 3.52
CSCC[C@H](NC(=O)[C@H](CC(C)C)NC(=O)[C@@H](Cc1c[nH]c2ccccc12)NC(=O)[C@H](Cc1ccccc1)N(C)C(=O)[C@@H](Cc1c[nH]c2ccccc12)NC(=O)[C@@H](N)CCCNC(=N)N)C(N)=O [Antagonist-G],inactive: -0.792,inactive: 1.12,inactive: -1.08
O=C(O)Cc1cccc2c(=O)cc(-c3ccccc3)oc12 [Mitoflaxone],inactive: -0.893,inactive: -0.641,inactive: -1.47
CO[C@H]1CC[C@H](N(c2cc(C3=CCCCC3)sc2C(=O)O)C(=O)[C@H]2CC[C@H](C)CC2)CC1,inactive: -0.324,inactive: 0.597,inactive: -2.97

# As a short view, part of the list above.
Structure (SMILES),TEAD-luciferase reporter activity (compound concentration: 200 nM),TEAD-luciferase reporter activity (compound concentration: 2 uM),TEAD-luciferase reporter activity (compound concentration: 10 uM)
CCc1nn(CCCN2CCN(c3cccc(Cl)c3)CC2)c(=O)n1CCOc1ccccc1 [Nefazodone],inactive: -1.94,–,inactive: -0.678
CCc1nn(CCCN2CCN(c3cccc(Cl)c3)CC2)c(=O)n1CCOc1ccccc1 [nefazodone hydrochloride],–,inactive: -1.45,–
N=C1CCCN1Cc1[nH]c(=O)[nH]c(=O)c1Cl [Tipiracil hydrochloride],inactive: -0.338,inactive: 2.11,inactive: -1.25

# Later entries:

Structure (SMILES),TEAD-luciferase reporter activity (compound concentration: 200 nM),TEAD-luciferase reporter activity (compound concentration: 2 uM),TEAD-luciferase reporter activity (compound concentration: 10 uM)
NC(=O)[C@@H](CCC(F)(F)F)N(Cc1ccc(-c2ncon2)cc1F)S(=O)(=O)c1ccc(Cl)cc1 [avagacestat],inactive: -1.19,inactive: -1.24,inactive: 0.263
CCOC(CN1CCN(c2ccccc2OC)CC1)c1cccnc1 (centres undefined),inactive: -1.13,inactive: 1.5,inactive: 2.92
CCN(CC)CCNC(=O)c1cc(C#N)c(Cl)cc1OC,inactive: -2.03,inactive: 1.19,inactive: 0.227
CC(C)NCC(O)COc1ccc(OCCOCCc2ccc(F)cc2)cc1 (centres undefined),inactive: -0.558,inactive: -0.554,inactive: -1.71
CCOC(=O)c1ccc2[nH]c3c(OC)c4[nH]c5ccc(C(=O)OCC)cc5c4cc3c2c1,inactive: 0.612,inactive: 1.12,inactive: -0.472
CCc1[nH]c(=O)n(C(=O)c2ccccc2)c1C(=O)c1ccc(-n2ccnc2C)cc1 [analog of CK 3197],inactive: -1.7,inactive: 1.58,inactive: 2.01
CO[C@@H](C(=O)N1Cc2[nH]nc(NC(=O)c3ccc(N4CCN(C)CC4)cc3)c2C1)c1ccccc1 [danusertib],inactive: -0.804,inactive: -2.38,inactive: -2.05
CC1(C)SC2C(NC(=O)C(NC(=O)N3CCNC3=O)c3ccccc3)C(=O)N2C1C(=O)O (centres undefined) [azlocillin],inactive: -1.78,inactive: -0.92,inactive: -1.21
Nc1ccc(OS(=O)(=O)O)c(C(=O)O)c1,inactive: 1.02,inactive: 0.246,inactive: 0.864
Cc1cn(C2OCC(O)C2CO)c(=O)[nH]c1=O (centres undefined),inactive: -0.774,inactive: 0.445,inactive: -1.14
CC(C)NC(=O)C[C@H]1CCCN(C(=O)c2ccc(N3CCCC3)cc2Cl)c2ccccc21,inactive: -0.451,inactive: 1.06,inactive: 1.79
COc1cc(C(=O)NCCCCCC(=O)O)cc(OC)c1OC,inactive: -1.59,inactive: 0.422,inactive: 1.22
CC(=O)OC1CC[C@@]2(C)C(CC[C@]3(C)C2CCC2C4[C@H](C(C)C)CC[C@]4(CCOC(=O)CCC(=O)O)CC[C@]23C)C1(C)C (some centres undefined),inactive: -1.55,inactive: -0.762,inactive: -0.265
COc1cc(O)c(-c2c(C)cc(OC)c3c(OC)cccc23)c2c1[C@H](C)NC(C)C2 (some centres undefined) [Ancistrocladine],inactive: -0.763,–,inactive: 1.92
COc1cc(O)c(-c2c(C)cc(OC)c3c(OC)cccc23)c2c1[C@H](C)NC(C)C2 (some centres undefined),–,inactive: -1.1,–
O=C(NC1CCN(c2nc3ncccc3o2)C1)C1CCCC1 (centres undefined),inactive: 2,–,inactive: 2.4
CC[C@H](C)[C@H](NC(=O)[C@H](CCC(=O)O)NC(=O)[C@H](CO)NC(=O)[C@@H](NC(=O)[C@@H](N)CO)C(C)C)C(=O)N[C@@H](CCC(N)=O)C(=O)N[C@@H](CC(C)C)C(=O)N[C@@H](CCSC)C(=O)N[C@@H](Cc1c[nH]cn1)C(=O)N[C@@H](CC(N)=O)C(=O)N[C@@H](CC(C)C)C(=O)NCC(=O)N[C@@H](CCCCN)C(=O)N[C@@H](Cc1c[nH]cn1)C(=O)N[C@@H](CC(C)C)C(=O)N[C@@H](CC(N)=O)C(=O)N[C@@H](CO)C(=O)N[C@@H](CCSC)C(=O)N[C@@H](CCC(=O)O)C(=O)N[C@@H](CCCNC(=N)N)C(=O)N[C@H](C(=O)N[C@@H](CCC(=O)O)C(=O)N[C@@H](Cc1c[nH]c2ccccc12)C(=O)N[C@@H](CC(C)C)C(=O)N[C@@H](CCCNC(=N)N)C(=O)N[C@@H](CCCCN)C(=O)N[C@@H](CCCCN)C(=O)N[C@@H](CC(C)C)C(=O)N[C@@H](CCC(N)=O)C(=O)N[C@@H](CC(=O)O)C(=O)N[C@H](C(=O)N[C@@H](Cc1c[nH]cn1)C(=O)N[C@@H](CC(N)=O)C(=O)N[C@@H](Cc1ccccc1)C(=O)O)C(C)C)C(C)C [Teriparatide],inactive: -1.02,inactive: 0.611,inactive: 0.622
